We go through 18 molecules from publication PMC8301015.

Results are given in words; binding and its absence hold for the method and conditions named. In cells and extracts the contact can be indirect. Here binding means that the protein was enriched with, or labelled near, the bait; the list need not be complete. Tags and fused reporters may be left off the sequences shown.

The assay deals with T1, AbxC (atypical BrxC; DR_1832), C-terminal His x 6 tag (Deinococcus radiodurans) (UniProt Q9RTD3).
T1 sequence: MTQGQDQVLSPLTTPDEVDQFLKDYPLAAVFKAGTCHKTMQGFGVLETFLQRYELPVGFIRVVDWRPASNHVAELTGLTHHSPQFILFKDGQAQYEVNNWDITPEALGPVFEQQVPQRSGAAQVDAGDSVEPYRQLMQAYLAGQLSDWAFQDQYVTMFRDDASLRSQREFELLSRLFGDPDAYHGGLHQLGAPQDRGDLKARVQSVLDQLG
Nature of the assay: affinity purification with mass spectrometry; AbxC immobilised on CNBr-activated Sepharose 4B; 10 mg D. radiodurans cell lysate, overnight at 4 °C; washed with 100 mM Tris pH 8.0, 0.5 M NaCl; eluted with 10 mM DTT; SDS-PAGE bands, in-gel trypsin, nLC-MS-MS; only the target purified.

B1: putative sensory transduction regulator (DR_1245), endogenous (protein, UniProt Q9RUY5 1-165)
chain: MRPAFTSQEENTMETALLTLDTLAKYLQEKEVQLDIEENGGQRFIRMGWRFEMGDAAVLVSVNDGPNNTSRLEITCVTQKTYADRRAEVAMMLNDRNRERAFARSIDQEGNVWLEYVGFYPTLAEMPQETFDTLFGGVLMHFQDDYAALEGYVPQEGMQIQQPQA
Consider B1, for which the binding entry is “binds”.

B2: ketol-acid reductoisomerase (DR_1519), endogenous (enzyme, UniProt Q9RU74 1-336)
chain: MSAKMYYDRDVDTQVLENKLIAIIGYGSQAHAHAQNLRDSGFNVVVGLREGSSSKAKAEQAGLRVASIEDATKEADVVMLLIPDEQQPAVYEKSIAPHLTAGKALAFGHGFNVHFGRIKPPADVDVFLVAPKGPGHMLRRVYTDGAGMPGIFAVQQDASGKARDIALAYARGIGCTKAGVLETTFKEETETDLFGEQSVLCGGVTHLIQAGFETLVEAGYQPEIAYFETLHEVKLIVDLIYEKGFEGMRHSISNTAEFGDYVTGPRIITDQTKAEMKNVLGDIQSGKFAESFIKDAESGFPYMNEQRSKMRDHTVEKVGKELRDQMPFINKKELEV
On to B2, for which the binding result is listed as “binds”.

B3: Nudix family protein (DR_1776), endogenous (enzyme, UniProt Q9RTI8 1-175)
chain: MPPLGVDVWGEWGVRLPGMTDIRLPLGGLKFSVRVALLCVRNGELLVQTSEANAPEPFFFLPGGALSTDEDAATCARREWEEETGLLCGPLRLVAVVENFFGPPEKRQHEIGFYFRLEEVPAELPHGAFSVLDNTDTGFEWVRLDELGARPVYPLLVRDLLSVPVGEVRHLVIRS
Regarding B3, the binding result is “binds”.

B4: S-adenosylhomocysteine nuclosidase (DR_1451), endogenous (enzyme, UniProt Q9RUD6 1-238)
chain: MLGSMLAIIGAMDEEIELLLGELQGREDLTLPGATLHRGVLDGVPVLLTRGGIGKVNAALTTAHLLGQGATSVIFTGVAGGVHPDLRVGDIVVSTDLVQHDVDVTALGYDLGTLPGEPATWTADARLRALAVAAAGDVGGVRVIEGRVASGDQFIASREGVGRLWKNFGAACAEMEGAAVAQVCAKAGVPFVVIRSVSDTADHDAQVDYRTFMPLVARHAKQVVRGMLERLSGAAEAN
Take B4: the binding result was “binds”.

B5: enoyl-CoA hydratase, putative (DR_0114), endogenous (enzyme, UniProt Q9RY37 1-257)
chain: MTYQSIRLTQRPLSQDGTTQGGTVATLTLAAKMGSMGPAFWQEFPQALSELGDARVLIVRGEQVFSAGLDVKSNGAAIVPALGKPDAFKAVVDEMHAVTEGLAALPMPVIAAVHGWCIGAGLELIAGADLRLCSQDARFSLPEVKLGITADLGGLQRLPHLIGRGRTAHLALTGEAIDAATAERWGLVTEVLPDQDALFARAEALAEHLAALPAKALEGTKRALSDGLPHAESLAAAVRWNAEHMTVEALQAGMKKG
Take B5: the binding result is “binds”.

B6: Nudix family protein (DR_0876), endogenous (enzyme, UniProt Q9RVZ4 1-157)
chain: MNLSRTLPIKRAAHVYLVRGEELLLVEERMDDGSIFYGLPGGKAQPSETLADAAVRQVLVETGLHVTNLEFVSLLEGELLTGTRNECFANFARFTAAFHGELDPTDPEVVGVKWVPFEQVEGLVRYGPPPECEERNPLIWLPTRDFIAGKARAYYPI
Regarding B6, the binding result is given as “binds”.

B7: organic hydroperoxide reductase (DR_1857), endogenous (enzyme, UniProt Q9RTA8 1-139)
chain: MANVYTAEATATGGRAGTTRSSDDRLNLDLSVPAEMGGDGGPGTNPEQLFAAGYAACFQGALGVVSRRQKIDVPADSTITARVGLQKAGLAFALDVELEGHFPGLSREQAEGLMHAAHEVCPYSAATRNNVDVRLKVRE
In the case of B7, the binding result is “binds”.

B8: oxidoreductase (DR_1890), endogenous (enzyme, UniProt Q9RT75 1-327)
chain: MCPSCAATFLSPILLGMTHGTPAQAPNTQTSNAQSPNAAASGTFLIGGELEVNRLGYGAMRVTGDGVWGDPADREGSLATLRALPGLGVNLIDTADSYGPAVSEELIREALHPYPGLVVATKGGLTRTGPNVWPPCGRPEYLIQQAQISRRRLGVERIDLWQLHRIDPQVPRDEQFGAIRQLLDDGVIRFVGLSEVNVEEIEAARQVFPVATVQNLYNLTNRKSEAVLDYCGREGIGFLPWYPLASGKLAAEGSVLTETAARLGAAPAQVALAWVLRRSPVMLPIPGTSKVKHLEENVAAASLTLTDEDFRALDEAGRAEWEAGQQK
On to B8, for which the binding result is recorded as “binds”.

B9: hypothetical protein (DR_2481), endogenous (protein, UniProt Q9RRK8 1-153)
chain: MPRPFLTVLRNSGGMDEQEMLTALRELFPRAEVTEAMNAFFWFAEGDERKLMPFLTLVTTDEHDRASRLSREGAYRLNFSLTPAEYASRFGPLPKARADWGVVDTGFDYAAPDRLMPHPIYAPLGWACIVRPGRESFEALVPLLRAAYERALT
In the case of B9, the binding entry is “binds”.

B10: glucose-6-phosphate isomerase (DR_1742), endogenous (enzyme, UniProt Q9RTL8 1-541)
chain: MSRLTDLPAWQALEDHYYELQGTHLRELFAADPERGEKMNAEGAGLYLDYSKHRVTDETLRLLRELAQATGVEARRDAMFRGEKINVTEGRAVLHTALRAPRDAVIEVDGKNVVPEVHEVLDRMATFADAVRSGEWLGYTGKPIKNIVNIGIGGSDLGPVMAYEALKHYAQRDLTVRFVSNVDGTDLTEKTRDLDPEVTLFIVSSKTFTTQETMTNARSARKWLLGSLKDDAAVTRHFVAVSTNAEEVQKFGIDTANMFGFWDWVGGRYSMDSAIGLSLMVAVGPEHFREMLAGFHDMDEHFRTAPAEQNLPMLMGLLGVWYGDFFGAESLAVLPYDQYLASFPAYLQQLDMESNGKHVTLGGEPVDYQTGPIVWGQAGTNGQHAFYQLIHQGTKLIPCDFIGFCQTLNPLPPHHDLLMANVFAQTEALAFGKTLEQVLADGVAPEVAPHRVFEGNRPTSTILADRLTPRTLGALIALYEHKVFVQGAVWDINSFDQWGVELGKVLAKKIDGELQSEGEPELQHDSSTNALIRRYRARRQG
On to B10, for which the binding result was “binds”.

B11: predicted acetyltransferase (DR_0763), endogenous (protein, UniProt Q9RWA6 1-158)
chain: MREAQETGSGLGETLVWKLDDISADFGKVLRDLTRYEPGNELPEGFVHSEYRWLVEGSEYLGRVSIRYSLNDRLREFGGHIGYEIRPSARRKGYGTLILRLALERARELGIDPVLVTCDVDNFGSRGVIEANGGELEGEFEVPQYHDQPIRRYWIRQP
As for B11, the binding result is on record as “binds”.

B12: transcriptional regulator OxyR (DR_0615), endogenous (protein, UniProt Q9RWQ1 1-317)
chain: MELRHLRHFVALAEEEHFGRAAERVFVVQQALSSSIRNLEEEVGVQLVTRTTRRVQLTPAGEEFLIGARATLAQAAQTVERARRAAQGEVGRLTVGFVSGLAFGGLPEIVRRFRELYPAVSVDLRELTAGEQEAALRGGQIDVGLLLLPVRDPALASRPLWRLPLVAALPAAHPLASRTTLRIGDLSQEDFVFFPRYLRATYFDQVMHWCADAGFTPHVVQEAIEIPTLLSLVAAGVGVFLPIEFFARLALPGVVYRPLEGAPVIEIVAVWRRAAAGEQSTRPTVQAFLQVAERVLSGENGAGEATPLPVLPTEPPR
For B12, the binding entry is listed as “binds”.

B13: acyl-CoA thioester hydrolase (DR_2298), endogenous (enzyme, UniProt Q9RS29 1-165)
chain: MRRAPTLPGMTASSRPRPEEVYEALDWSRALRHRIQMRYADLDTMGHLNNAVYVQYFETARVLVWEDLGIPPHLDRSVIAHQEIDYRREVRWGQDVWVEALIERLGNTSWTTVCRMVADGQPCAYSRTVQVRVGEGGLRPQPLEPELRELMSRLLVPGQDSPNPA
For the molecule B13, the binding entry is recorded as “binds”.

B14: nicotinamide-nucleotide adenylyltransferase (DR_2428), endogenous (enzyme, UniProt Q9RRR0 1-345)
chain: MTAPHDPALASPAPPIPSRAYGVYIGRFEPPHQAHLLVMLEALERVQTLIVVIGSARSARTTKNPWTAHERQDVIEAMLAEAGADPQRLRFVHVRDFLYDEAHWLADVRAGVEAHTGGSRDVALVGHIKDESSYYLRSFPDWEFLPTHVVSPLNATDVRRAYFEDRLSDVRGMVPPAVHAFLEGFQRTPEYAELQAEFLALRSAVAPAPATRLTVGAVVSGAGQLLAVRRAERPGRGLLTLPGDEPGPQETLLACAMRAVRQQTGLDTGAVLGAVRAQAIFDAPGRSQRGRIVAYVFHFALGEDALTAQPAGNAAAWLPLSEALEHPEGWFEDEAEIVAHFLAKV
B14: the binding entry is “binds”.

B15: propionyl-CoA carboxylase (DR_1316), endogenous (enzyme, UniProt Q9RUR6 1-520)
chain: MTQPGIELQELIATMEQRRRKVEEGGGPERQQKQREGGKLTARERIERLLDPGSFLESSTFVEHGRNRLMDGIEAPGEGVVTGSGTIDGRQVFVFSQDFTVLGGSLGKMNASKVTKIMDLAAKTGCPVIGLNDSAGARIQEGVDSLSGYGEIFYRNAVYSGSVPQISAILGPCAGGAVYSPAITDFILMSRGSSYMFITGPEVIKSVTREEVTFDQLGGADVHTRKSGVAHLAYEGDEAVIDGIKDLLGYLPQNAREKAPVKPTSDPADRRNEKLLDIVTPDQRRPYAMQDVIRELVDDGTFLEIQPDWAKNIIVGFARLNGQSVGIVANNPKALSGSLNIDASDKAARFIRTCDCYNVPILTLVDVSGFLPGVQQEYGGIIRHGAKMLYAYAEATVPKVTLITRKSYGGAYLAMNSRDMGADVVYAWPTATVAVMGAEGAANIVYRKDIKDSENPAATRAEKIAEYKEAFDNPYVAAAKGYIDDVIPMEETRERLIRTFEMLANKEETRPFKKHGNIPL
Take B15: the binding result is “binds”.

B16: radical SAM superfamily protein (DR_1298), endogenous (protein, UniProt Q9RUT4 1-522)
chain: MTEALEQPLRRILSYWRNEIKPLLDAETGTLFKQAPIRVTLAFPNRYSVGMASLGYQVIYRMFNQEEGVACERAFLPDDVDAFERTGQALPTVESGRAAGDCELFSISVSFELDLTNIIRLIDVAGMNPLREERDETDPVVMIGGPLTSSNPYPLTPFADIIIIGDGEQIVPVVSEALRESSSREDFYDLIDGVPGVFLPARHVHEPTWATAPKELLPAYSQIVTPHSELSNMFLVEAQRGCPRPCTFCLARTMYGPNRNNQAQELLDVIPDWVEKVGLVGAALSDFPHTKFVGKTLTERGVKLGVSSIRADTVDAELAEILKAGGLRTFTVASDAPSERLRRWLKKGITTEDLLKTAQISRDLGFSGLKVYMMIGLGPENDDDITELISFTKELAGINRIALGISPFVPKRHTPHFADPFAGVQTIEKRLKRIQKELRTTAELRNVSAKWAWVESVIARGGPEVGMAAYQIYRNESIGAWKKALDEVGWQDDFEANTPSIGLPPGQYESKEVSAHAQGLAV
With B16, the binding result is given as “binds”.

B17: signal transduction response regulator (DR_1418), endogenous (protein, UniProt Q9RUG8 1-134)
chain: MAVMAYTILVADDEPAIRTMLEVILSADGHEIVAVPDGRAALAYLQSHTPDALLLDVKMPYMDGFEICSRVKRIKRLRGCAVLLLSTVDDDQTRDQAKLVGADDIVVKPVSGKLLRGRVNQLIEARRGGSLYPL
Consider B17, for which the binding result is on record as “binds”.

B18: putative homolog of BrxC (YtxJ) (DR_1832; AbxC), endogenous (enzyme, UniProt Q9RTD3 1-211)
chain: MTQGQDQVLSPLTTPDEVDQFLKDYPLAAVFKAGTCHKTMQGFGVLETFLQRYELPVGFIRVVDWRPASNHVAELTGLTHHSPQFILFKDGQAQYEVNNWDITPEALGPVFEQQVPQRSGAAQVDAGDSVEPYRQLMQAYLAGQLSDWAFQDQYVTMFRDDASLRSQREFELLSRLFGDPDAYHGGLHQLGAPQDRGDLKARVQSVLDQLG
Take B18: the binding entry is “binds”.
